Results on 1 molecule are retold here after patent US20070128672A1.

Holding throughout (experiment): cross reactivity ELISA, Fab detected with 9E10 and AP goat anti-mouse
A general note: In an ELISA, binding on a coated surface is turned into a signal by an enzyme label.

The target of assay [1] is early pregnancy factor.
Assay [2] deals with insulin.
Assay [3] addresses keyhole limpet haemocyanin (keyhole limpet).

No constants are given. Whether binding was seen depends on the method and setting.

B1: Fab clone 1159.8 (Fab, V domains shown)
VH: VQLLESGGGLIQPGRSLRLSCTASGFPFGDSAMTWFRQAPGKGLEWVGFIRSKAYGAATAYAASMKGRVTISRDDAKSIAYLHMSRLKIEDTAVYFCSRVKAGGPDYWGQGTLVTVSS
VL: AAELTQSPLSLPVIPGEPASISCRSSQSLLHRNGYNYLDWYLQKPGQSPQLLIYLGSTRASGVPDRFSGSGSGTDFTLNIRRVEAEDVGVYYCMQGLQTPYTFGEGTKVEIK
Regarding B1, the binding result is listed as “no binding (tested: antigen coated at 2 µg/ml)” in assay [1], “no binding (tested: antigen coated at 5 µg/ml)” in assay [2] and “no binding (tested: antigen coated at 1 µg/ml)” in assay [3].
